Drawing on PMC9020716, this text covers binding for 4 molecules.

These are yes or no findings as the source states them, for the method shown. In cells and extracts the contact can be indirect. Here binding means that the protein was enriched with, or labelled near, the bait; the list need not be complete. Sequences can lack the tags named with a protein.

For test [1], the target named is T1, Posm-6-driven TurboID:GFP:SPD-5 (C. elegans) (UniProt P91349).
T1 sequence: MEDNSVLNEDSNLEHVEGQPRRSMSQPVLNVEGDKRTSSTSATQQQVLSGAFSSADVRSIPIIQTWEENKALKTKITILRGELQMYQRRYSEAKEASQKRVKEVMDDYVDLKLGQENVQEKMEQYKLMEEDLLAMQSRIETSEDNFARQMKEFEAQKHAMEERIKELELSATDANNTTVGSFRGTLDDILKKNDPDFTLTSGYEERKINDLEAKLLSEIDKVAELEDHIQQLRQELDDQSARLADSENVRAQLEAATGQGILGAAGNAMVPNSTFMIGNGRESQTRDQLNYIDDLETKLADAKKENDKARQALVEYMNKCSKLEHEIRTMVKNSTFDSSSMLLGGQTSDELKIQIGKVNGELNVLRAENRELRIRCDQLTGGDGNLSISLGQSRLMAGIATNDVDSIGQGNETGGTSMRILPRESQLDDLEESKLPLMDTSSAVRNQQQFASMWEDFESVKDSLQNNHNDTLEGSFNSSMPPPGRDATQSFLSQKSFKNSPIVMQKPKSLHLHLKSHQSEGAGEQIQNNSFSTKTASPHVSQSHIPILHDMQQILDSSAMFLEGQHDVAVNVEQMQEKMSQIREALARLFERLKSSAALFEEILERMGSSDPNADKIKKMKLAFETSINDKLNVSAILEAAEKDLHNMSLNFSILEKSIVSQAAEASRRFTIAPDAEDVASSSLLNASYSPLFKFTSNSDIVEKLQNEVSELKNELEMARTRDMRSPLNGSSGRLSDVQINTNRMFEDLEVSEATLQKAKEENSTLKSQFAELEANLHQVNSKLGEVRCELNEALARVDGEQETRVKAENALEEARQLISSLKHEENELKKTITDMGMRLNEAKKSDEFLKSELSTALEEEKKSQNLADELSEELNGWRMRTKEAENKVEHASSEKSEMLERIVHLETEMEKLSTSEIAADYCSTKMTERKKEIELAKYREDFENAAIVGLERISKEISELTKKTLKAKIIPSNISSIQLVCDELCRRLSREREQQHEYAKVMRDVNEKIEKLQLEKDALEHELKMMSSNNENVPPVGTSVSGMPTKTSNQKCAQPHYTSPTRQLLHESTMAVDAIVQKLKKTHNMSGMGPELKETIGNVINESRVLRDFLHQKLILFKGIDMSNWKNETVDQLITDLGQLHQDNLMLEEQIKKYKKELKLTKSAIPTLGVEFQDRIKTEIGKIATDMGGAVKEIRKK
As to the kind of experiment: proximity labelling; direct TurboID in ciliated neurons: TurboID:GFP:SPD-5 under the osm-6 promoter against the TurboID:GFP control; L1 larvae, whole cell extracts, streptavidin pull-down, LC-MS/MS; Log2 enrichment >1, p-value <0.05.

The target of test [2] is T2, GFP:TurboID:PLK-1 (C. elegans) (UniProt P34331).
T2 sequence: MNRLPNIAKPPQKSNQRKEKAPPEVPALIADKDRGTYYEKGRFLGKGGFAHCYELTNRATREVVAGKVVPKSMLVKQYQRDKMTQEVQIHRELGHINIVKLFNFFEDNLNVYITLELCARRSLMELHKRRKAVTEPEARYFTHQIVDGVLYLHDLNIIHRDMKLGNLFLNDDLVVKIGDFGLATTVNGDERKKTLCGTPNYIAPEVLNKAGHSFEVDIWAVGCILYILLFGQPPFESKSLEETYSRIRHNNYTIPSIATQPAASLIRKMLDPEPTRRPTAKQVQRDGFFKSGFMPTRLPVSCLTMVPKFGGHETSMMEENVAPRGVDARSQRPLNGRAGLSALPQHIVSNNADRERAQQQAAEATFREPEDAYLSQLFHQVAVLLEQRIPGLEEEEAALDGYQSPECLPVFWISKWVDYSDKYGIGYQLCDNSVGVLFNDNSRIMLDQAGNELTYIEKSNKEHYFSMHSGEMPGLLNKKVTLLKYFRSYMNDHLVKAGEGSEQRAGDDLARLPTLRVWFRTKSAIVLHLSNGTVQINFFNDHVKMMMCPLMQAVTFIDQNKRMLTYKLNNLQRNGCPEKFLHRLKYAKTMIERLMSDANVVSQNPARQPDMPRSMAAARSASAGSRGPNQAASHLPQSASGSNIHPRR
Briefly: proximity labelling; direct TurboID: GFP:TurboID fusion of the bait expressed as a transgene in mixed-stage C. elegans embryos, no supplemental biotin; insoluble (cytoskeletal) fraction resolubilised under denaturing conditions, streptavidin pull-down, LC-MS/MS; three replicates against the GFP:TurboID control; Log2 enrichment >1, p-value <0.05.

For test [3], the target named is T3, GFP:TurboID:SPD-5 (C. elegans) (UniProt P91349).
T3 sequence: T1 sequence
The description is as above.

Regarding PCMD-1, the binding entry in test [1], in test [2] and in test [3] was “binds” in each case.
Consider ZK809.5, for which the binding entry in test [1] and in test [2] was “binds” throughout.

B1: APR-1/APC (protein, UniProt Q21227 1-1188)
chain: MSSSSSDENETTIHRTGSNTGGSGIYSQPRAGSSKRTSNVRHDVSDVDDEEEHYARFREDTAIEVDDAITVLLSSLHFEHKRDIVPTDEDDNKLRELHEKIFALITSESDVNRKRRLKKALPASNCVREQVYYLRRKPSTPPASYYHRLNAALHTIVKESFGEEYRKVATVLGLVEALAEVLILEVHTFGINETNPGEHRNIRKLIANALTNLTYGQIHSKRRLCSYDGFIRCVVRIVIESPNITQVYAGLIRNLSWNADSGMSEALQPTVHALSIAAVHAHTHRFDVTATLSALWNLAGHSVENKRTICDTPNCLKVLASLLSPDARFTSLVDSATGILKYVSQYLANTSTHLELRSLLITRMLTLLKSASFTCVTNTLGAIANLIVKDPHMQQMIRQDMAAVQQLNVLRNSNRDDIRTAVKSVLNTLNQPCSHRYGDMSHSVGGGATGMQMLSEPQLQMQTSHHAYHGTASPRLLSLRATRASPGKYIQPQAQQQLIQTPQVDQRSSSLPRHFAVQRNGFVMAQSYNQQMDQHQQQQMIYQLQQQQQIMFQTEDQAQMEHHQQIMYLQQQQQQFHQIQQQQQMQKAQEADPVPPTDDDLDIPTSTVMGTRSNSERSLGSMNPGSVMTNWNSSLDTAANSSRALSPVSYNDIPASPTMCAQVFNLPKSTESEHHQLTSQQQNTTHYSSGSANTMTRSDGATTVPMDNIITPTYAILNPILVHEQTPNGTVPRKTSEELDSPDDVLPGPSLEEEEGDYAIIGGAAQKTDDELLTRSIQSEMPTSSSTPKMKVSPRLNGFFSPTQKTTSSPAWSHPDTSPIPKSSSHRTQPNRRQDASDADRLLMESIMSEMPKSRIISPRLAGTQQYLEPEPERRSHSKNEEADRRDAFTASHEPSDHNGIDVARGSDWSPQQQLHRMESLESQASSEDSFGLTAEEPNSSTSGAAANTMRFDDEIDASLPMDCVDDDDYDYTYDHFEDYEDEEDPDATQFDDGVDAQLTIDCSMISSGSGSSQRNETTTTSRDSKALATSTPKGSASSLPGVRQATRVSTNGKSRLPVPKTNGSLVDKNPKPIIASRRPRLPPKPTLLKDKHYPEEDSIENQTRDDTIYVNAPVVEAEQERIYMNALKQQKNIEQSPSIGNGSPIAKSAIVTPYNYQKPPFTGRNNGEMSNEKSVTPNPKQMLVTIV
Regarding B1, the binding result in test [2] is on record as “binds”.

B2: RSA-2 (protein, UniProt G5EFV3 1-947)
chain: MSKIPVFKGSFKSWLAKNDEKPAKSVLLEPKYRDHHEKIRNKENMEEGEKPVFVSMANPQPTREDYERYDEDRRLKDKARDLRIARRRNSATPEASPSSDQYFTPEPADDEFVTPSTSKKSQKPRSSDATPVSSKPPRYLPRTPLSEQYTSCLSRKMEENFSRMQELMISGHSPHEARQQTIQESSEQLEPRAKVTRSSSQPPPIDTLKPRVPRIESPLVKKTTETPIRRTSYVDTLVATHQIQLQYSDRVVVGVERQMTKLESIKNLAAANRSPIIAEEAKKRRNEAEAVRKLIEVETQNAKKRAVIQELKDRIDKLTQAQLAIHQLVSSQPFSGDPYNQRLLRSIDNWMALPFREFDIQTAREMLELARKMKITIDHFRNVATLHRNSKSLNRSLNTSRKSIAVKINPSSQLNQQSSSDAAPPPSMREASTQMTSRLAESAMTQTSPRRIGVEPLDLSQLLEKHNSSSQTTPPVVEPVLAEVSAEPQRPPVTLSMTAPVSTIAEFDSMLNSISLHNESLETVAEPFSRLKTDISFPSTVEETTPRSGRVSLDSESARRLSAGLSHYLEQVKKERESMEAQESESESMELEIPVVSEVSVTTESENLEEVVSEHSDSKSPETLVASDNGEDSSGGSEDPNATQFEHEIEEHKEPEKLGLIIDPEDEQDETKRFVNHDEFEQSLEEELEPRGNNDSADDSGFLLDNSPAPRLKSIFDNLPPAAASAAVTDTPRVPAEADETTFAGMDMEEYCQREFLKEISPIMVQKAIELQDELRGVDWLTAQDVWQPPSFKDVQMEFDDNFEYFDSFSILIWSAVVDLINKNYLKFGRKMTENEEIAFEAEALKMLQTEHGPESRKSEWCTDVKMSKKLEGMMPMELDYRYDVRRGLPDAEKQKYQWQQVQMTVIAARYANKNLINEANEVYATEKEKLGQMVLESEIDATVTDV
With B2, the binding result in test [1] and in test [3] was “binds” each time.
